According to patent US20100247658A1, “ORGANIC COMPOUNDS” (priority 2007, published 2010):

Settings: coarse unmilled

C[N+]1(C)CCC(OC(=O)C(O)(c2ccccc2)C2CCCC2)C1.[Br-] (stereo not shown) [glycopyrrolate, 3-[(cyclopentyl-hydroxyphenylacetyl)oxy]-1,1-dimethyl-pyrrolidinium bromide]
ka/kb ratio (acid-basic ratio describing surface properties): 1.0
